Test results: the supplement of paper PMC10849652
The other results are listed elsewhere or left out. Residues, ends and D or L forms follow the SMILES beside them. *: point of attachment. Cbz = O=C(OCc1ccccc1)*

Sequences of proteins named here, by UniProt entry; tags and fusion partners are left off. A change or cut given only in a name is not applied to a line headed by its entry.
UniProt Q01432: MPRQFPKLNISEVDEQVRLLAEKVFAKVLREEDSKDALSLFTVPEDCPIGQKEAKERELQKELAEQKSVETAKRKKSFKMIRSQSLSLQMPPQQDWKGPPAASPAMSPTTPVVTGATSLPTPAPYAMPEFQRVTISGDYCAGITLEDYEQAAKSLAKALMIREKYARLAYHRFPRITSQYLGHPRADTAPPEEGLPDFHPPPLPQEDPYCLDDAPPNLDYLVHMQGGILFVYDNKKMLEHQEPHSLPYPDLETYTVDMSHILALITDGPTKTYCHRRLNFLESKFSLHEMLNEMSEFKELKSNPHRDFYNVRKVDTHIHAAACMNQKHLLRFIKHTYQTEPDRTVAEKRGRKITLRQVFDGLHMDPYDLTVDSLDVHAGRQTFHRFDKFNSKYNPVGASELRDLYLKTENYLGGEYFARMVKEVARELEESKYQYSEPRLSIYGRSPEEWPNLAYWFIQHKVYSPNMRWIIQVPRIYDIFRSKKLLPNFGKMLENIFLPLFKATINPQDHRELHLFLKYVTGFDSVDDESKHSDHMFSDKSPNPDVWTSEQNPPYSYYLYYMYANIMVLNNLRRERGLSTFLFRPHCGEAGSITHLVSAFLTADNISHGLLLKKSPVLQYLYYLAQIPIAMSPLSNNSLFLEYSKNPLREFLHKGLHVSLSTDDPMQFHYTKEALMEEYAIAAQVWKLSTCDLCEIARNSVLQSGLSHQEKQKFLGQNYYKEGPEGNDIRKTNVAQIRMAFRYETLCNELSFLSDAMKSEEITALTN
UniProt Q9BT22: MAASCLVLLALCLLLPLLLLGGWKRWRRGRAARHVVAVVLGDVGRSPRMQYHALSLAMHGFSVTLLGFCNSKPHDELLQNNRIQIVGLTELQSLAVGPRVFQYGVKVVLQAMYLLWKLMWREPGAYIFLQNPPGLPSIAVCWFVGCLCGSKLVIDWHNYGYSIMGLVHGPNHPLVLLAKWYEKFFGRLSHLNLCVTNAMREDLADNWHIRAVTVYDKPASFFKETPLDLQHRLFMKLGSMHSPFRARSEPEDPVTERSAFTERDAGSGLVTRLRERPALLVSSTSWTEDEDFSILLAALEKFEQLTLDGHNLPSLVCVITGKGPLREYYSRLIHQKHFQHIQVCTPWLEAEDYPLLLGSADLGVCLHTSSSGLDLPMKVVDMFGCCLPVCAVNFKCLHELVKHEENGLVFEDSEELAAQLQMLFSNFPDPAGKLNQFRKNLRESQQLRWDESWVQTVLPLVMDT
UniProt Q9BVK2: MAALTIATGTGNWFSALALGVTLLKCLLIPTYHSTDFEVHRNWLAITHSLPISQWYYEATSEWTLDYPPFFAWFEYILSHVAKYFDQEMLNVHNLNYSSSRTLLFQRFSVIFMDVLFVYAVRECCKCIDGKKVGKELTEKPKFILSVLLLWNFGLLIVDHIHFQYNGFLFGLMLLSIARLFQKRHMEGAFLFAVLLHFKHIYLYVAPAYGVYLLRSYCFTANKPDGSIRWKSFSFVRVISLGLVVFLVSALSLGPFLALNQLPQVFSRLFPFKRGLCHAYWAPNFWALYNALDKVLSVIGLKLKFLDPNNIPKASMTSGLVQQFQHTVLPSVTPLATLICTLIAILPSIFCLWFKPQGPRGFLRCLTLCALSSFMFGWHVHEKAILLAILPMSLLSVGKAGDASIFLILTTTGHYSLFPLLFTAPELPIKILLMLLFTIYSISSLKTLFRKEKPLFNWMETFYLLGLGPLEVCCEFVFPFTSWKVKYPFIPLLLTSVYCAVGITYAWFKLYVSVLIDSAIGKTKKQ
UniProt Q9UIJ7: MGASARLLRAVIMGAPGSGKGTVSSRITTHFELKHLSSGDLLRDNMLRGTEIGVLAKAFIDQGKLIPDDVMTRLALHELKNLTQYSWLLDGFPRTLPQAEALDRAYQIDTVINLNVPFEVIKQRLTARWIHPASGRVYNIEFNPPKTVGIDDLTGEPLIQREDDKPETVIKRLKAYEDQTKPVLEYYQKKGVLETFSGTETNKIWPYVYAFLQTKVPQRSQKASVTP
UniProt Q96SZ5, whole entry, looked up: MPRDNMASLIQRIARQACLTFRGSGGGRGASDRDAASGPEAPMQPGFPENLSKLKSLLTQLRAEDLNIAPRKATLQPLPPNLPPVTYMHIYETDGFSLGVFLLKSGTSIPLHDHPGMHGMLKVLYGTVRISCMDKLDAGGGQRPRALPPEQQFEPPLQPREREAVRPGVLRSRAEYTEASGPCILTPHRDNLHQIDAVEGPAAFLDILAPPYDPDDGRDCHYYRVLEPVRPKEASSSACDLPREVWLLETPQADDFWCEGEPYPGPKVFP
UniProt P52594: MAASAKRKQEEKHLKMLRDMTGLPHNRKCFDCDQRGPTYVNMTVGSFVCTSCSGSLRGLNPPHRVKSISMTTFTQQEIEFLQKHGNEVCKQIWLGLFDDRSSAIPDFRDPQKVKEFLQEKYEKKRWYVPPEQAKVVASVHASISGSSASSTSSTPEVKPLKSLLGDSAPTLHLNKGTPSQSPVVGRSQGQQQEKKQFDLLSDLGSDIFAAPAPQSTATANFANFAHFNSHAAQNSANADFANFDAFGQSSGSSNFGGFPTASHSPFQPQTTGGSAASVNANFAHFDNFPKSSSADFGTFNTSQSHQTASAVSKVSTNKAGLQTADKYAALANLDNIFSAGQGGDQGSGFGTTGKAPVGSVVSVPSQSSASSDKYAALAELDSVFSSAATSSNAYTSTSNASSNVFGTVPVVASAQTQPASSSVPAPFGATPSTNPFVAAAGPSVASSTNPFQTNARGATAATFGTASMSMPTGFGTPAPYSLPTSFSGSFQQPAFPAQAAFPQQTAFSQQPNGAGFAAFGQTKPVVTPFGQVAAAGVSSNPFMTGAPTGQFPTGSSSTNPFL
UniProt P13716: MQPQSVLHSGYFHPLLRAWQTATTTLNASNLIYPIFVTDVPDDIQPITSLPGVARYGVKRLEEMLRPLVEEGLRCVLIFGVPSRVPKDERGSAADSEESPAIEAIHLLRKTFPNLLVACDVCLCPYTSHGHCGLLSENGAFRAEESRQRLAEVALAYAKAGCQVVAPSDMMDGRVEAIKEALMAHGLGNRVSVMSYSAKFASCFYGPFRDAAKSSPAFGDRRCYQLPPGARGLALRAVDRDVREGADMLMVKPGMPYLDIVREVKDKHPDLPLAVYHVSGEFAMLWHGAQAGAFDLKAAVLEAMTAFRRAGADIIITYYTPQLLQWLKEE
UniProt Q9NP73: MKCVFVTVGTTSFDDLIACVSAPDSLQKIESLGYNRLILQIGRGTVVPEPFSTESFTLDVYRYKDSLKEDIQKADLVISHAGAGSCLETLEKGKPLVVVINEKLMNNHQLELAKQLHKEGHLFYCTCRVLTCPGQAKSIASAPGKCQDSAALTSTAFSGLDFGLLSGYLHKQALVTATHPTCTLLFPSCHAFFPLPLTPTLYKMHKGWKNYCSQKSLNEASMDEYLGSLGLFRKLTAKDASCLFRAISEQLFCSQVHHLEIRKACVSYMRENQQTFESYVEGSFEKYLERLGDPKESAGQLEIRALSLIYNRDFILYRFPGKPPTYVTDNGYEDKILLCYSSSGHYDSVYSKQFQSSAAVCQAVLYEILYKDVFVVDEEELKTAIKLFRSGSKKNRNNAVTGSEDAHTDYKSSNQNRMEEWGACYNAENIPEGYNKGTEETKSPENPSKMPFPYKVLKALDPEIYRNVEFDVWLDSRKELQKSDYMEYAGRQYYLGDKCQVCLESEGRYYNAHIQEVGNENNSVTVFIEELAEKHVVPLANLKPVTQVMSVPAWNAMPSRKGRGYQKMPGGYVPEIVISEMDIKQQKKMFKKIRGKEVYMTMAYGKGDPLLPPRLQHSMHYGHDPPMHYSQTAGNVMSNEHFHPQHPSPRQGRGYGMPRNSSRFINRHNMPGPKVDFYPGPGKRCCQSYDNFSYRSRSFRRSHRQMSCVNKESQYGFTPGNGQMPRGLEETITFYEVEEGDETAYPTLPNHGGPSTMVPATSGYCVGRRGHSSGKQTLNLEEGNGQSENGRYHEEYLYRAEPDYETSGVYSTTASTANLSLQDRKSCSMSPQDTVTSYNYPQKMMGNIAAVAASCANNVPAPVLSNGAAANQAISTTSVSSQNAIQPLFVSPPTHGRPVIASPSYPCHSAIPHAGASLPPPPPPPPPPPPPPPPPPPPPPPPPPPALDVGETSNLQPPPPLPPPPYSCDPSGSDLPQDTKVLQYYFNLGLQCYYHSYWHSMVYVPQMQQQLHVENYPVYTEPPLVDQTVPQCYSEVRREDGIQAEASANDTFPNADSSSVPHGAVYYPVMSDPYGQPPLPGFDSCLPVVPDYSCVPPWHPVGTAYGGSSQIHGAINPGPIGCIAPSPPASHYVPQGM
UniProt P23526: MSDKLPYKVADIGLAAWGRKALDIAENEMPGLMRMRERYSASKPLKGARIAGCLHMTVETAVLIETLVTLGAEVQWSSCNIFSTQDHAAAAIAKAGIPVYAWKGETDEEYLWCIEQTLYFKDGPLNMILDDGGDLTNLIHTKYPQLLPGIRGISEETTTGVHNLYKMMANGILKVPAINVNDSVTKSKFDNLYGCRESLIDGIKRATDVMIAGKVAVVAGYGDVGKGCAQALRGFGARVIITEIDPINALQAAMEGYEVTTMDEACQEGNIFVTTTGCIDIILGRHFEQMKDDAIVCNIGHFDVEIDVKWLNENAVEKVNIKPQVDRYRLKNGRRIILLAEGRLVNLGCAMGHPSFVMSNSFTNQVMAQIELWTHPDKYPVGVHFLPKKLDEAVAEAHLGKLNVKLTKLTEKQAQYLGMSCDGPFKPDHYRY
UniProt P09972: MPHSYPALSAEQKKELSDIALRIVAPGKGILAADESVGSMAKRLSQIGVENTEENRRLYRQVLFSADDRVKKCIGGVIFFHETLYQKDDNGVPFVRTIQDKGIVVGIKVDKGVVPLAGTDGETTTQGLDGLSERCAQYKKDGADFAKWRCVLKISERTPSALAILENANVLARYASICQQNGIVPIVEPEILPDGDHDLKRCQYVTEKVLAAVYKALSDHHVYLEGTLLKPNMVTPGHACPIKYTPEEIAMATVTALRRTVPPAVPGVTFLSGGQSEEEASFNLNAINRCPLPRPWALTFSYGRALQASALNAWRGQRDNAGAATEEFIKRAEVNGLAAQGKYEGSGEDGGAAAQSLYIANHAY
UniProt P30566: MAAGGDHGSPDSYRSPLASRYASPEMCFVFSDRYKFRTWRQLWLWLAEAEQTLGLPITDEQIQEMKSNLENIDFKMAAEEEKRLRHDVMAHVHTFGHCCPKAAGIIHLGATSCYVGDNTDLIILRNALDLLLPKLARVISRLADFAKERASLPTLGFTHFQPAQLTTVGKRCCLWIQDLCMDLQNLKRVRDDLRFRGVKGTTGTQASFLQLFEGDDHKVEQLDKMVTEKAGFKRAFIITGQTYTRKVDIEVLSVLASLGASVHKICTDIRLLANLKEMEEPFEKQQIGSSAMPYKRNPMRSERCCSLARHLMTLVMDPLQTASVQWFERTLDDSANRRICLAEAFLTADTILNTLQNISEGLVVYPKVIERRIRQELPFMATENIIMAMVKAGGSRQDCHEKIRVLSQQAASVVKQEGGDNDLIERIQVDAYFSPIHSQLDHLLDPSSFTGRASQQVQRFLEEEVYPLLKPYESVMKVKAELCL
UniProt Q9H553: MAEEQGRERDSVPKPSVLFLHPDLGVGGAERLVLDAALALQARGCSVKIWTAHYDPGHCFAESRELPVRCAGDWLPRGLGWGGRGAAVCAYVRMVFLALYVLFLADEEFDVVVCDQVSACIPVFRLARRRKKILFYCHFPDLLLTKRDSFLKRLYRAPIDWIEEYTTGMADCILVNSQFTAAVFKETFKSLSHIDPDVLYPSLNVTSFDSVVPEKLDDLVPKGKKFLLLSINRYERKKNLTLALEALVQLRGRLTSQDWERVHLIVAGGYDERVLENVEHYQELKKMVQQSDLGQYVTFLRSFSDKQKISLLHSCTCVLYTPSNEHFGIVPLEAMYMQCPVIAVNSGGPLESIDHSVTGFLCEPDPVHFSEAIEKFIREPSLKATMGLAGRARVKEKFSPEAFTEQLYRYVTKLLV

What was measured:
Assay in all cases: log2 fold change, soluble protein after heating vs DMSO (PISA); higher = thermal stabilisation; K562 cells, 10 uM, 30 min; active = over 0.2 and 3.5 SD of the protein, either way, in both replicates (recomputed)
IRAK-1-4 Inhibitor I = compound: C1COCCN1CCN2C3=CC=CC=C3N=C2NC(=O)C4=CC(=CC=C4)[N+](=O)[O-] [IRAK-1-4 Inhibitor I]
In short: (§1)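 Aliquots of K562 cells (2×10^6 cells/mL) treated with 10 μM compound for 30 min were heated for 3 min over 48°C-58°C. After pooling and extraction in PBS with 0.5% NP-40 at 4°C, soluble protein from a 21,000xg, 90 min spin was quantified by TMTpro 16plex LC-MS/MS with channel sums equalised. Thermal stability is expressed against control samples, from duplicates, as a log2 fold change.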

ibrutinib = compound: C=CC(=O)N1CCC[C@@H](n2nc(-c3ccc(Oc4ccccc4)cc3)c3c(N)ncnc32)C1 [ibrutinib]
In short: as §1

[1] = compound: CC(=O)c1cnc2ccc(-c3cc(Cl)c(O)c(Cl)c3)nc2c1N[C@H]1CC[C@H](CN(C)C)CC1
In short: as §1

ralimetinib = compound: CC(C)(C)Cn1c(N)nc2ccc(-c3[nH]c(C(C)(C)C)nc3-c3ccc(F)cc3)nc21 [ralimetinib]
In short: as §1

[2] = compound: CC(C)(O)CC(=O)NCCn1ccc2ncnc(Nc3ccc(Oc4cccc(C(F)(F)F)c4)c(Cl)c3)c21
In short: as §1

[3] = compound: CC(C)C1=C2N=C(C=C(N2N=C1)NCC3=CC=CC=C3)NCCCCCCN
In short: as §1

[4] = compound: CC(C)C[C@@H](C=O)NC(=O)[C@H](CC(C)C)NC(=O)[C@H](CC(C)C)NC(=O)OCc1ccccc1
In short: as §1

pinometostat = compound: CC(C)N(C[C@H]1O[C@@H](n2cnc3c(N)ncnc32)[C@H](O)[C@@H]1O)[C@H]1C[C@@H](CCc2nc3cc(C(C)(C)C)ccc3[nH]2)C1 [pinometostat]
In short: as §1

[5] = compound: CC1=C(C(CC(=O)N1)C2=CC=C(C=C2)C(F)(F)F)C(=O)NC3=C(C=C4C(=C3)C=NN4)F
In short: as §1

[6] = compound: CC1=C(C2=C(C=C1)C(=O)C3=CC=CC=C3N2CCCN)C
In short: as §1

[7] = compound: CC1=C(C=C(C=C1)NC(=O)C2=CC(=CC=C2)C(C)(C)C#N)NC3=CC4=C(C=C3)N=CN(C4=O)C
In short: as §1

[8] = compound: CC1=C(C=C(C=C1)NC(=O)C2=CC(=CC=C2)N(C)C)NC(=O)C3=CC=C(C=C3)O
In short: as §1

[9] = compound: CC1=CC=C(C=C1)SC2=C3C=C(SC3=CN=C2)C(=O)N
In short: as §1

[10] = compound: CC1=NC(=CC=C1)C2=C(N=C(N2)C(C)(C)C)C3=CC4=NC=CN=C4C=C3
In short: as §1

Nexturastat A = compound: CCCCN(Cc1ccc(C(=O)NO)cc1)C(=O)Nc1ccccc1 [Nexturastat A]
In short: as §1

vemurafenib = compound: CCCS(=O)(=O)Nc1ccc(F)c(C(=O)c2c[nH]c3ncc(-c4ccc(Cl)cc4)cc23)c1F [vemurafenib]
In short: as §1

[11] = compound: CCCS(=O)(=O)Nc1ccc(F)c(C(=O)c2c[nH]c3ncc(Cl)cc23)c1F
In short: as §1

[12] = compound: CCCc1cc(C)[nH]c(=O)c1CNC(=O)c1cc(-c2ccnc(N3CCN(C)CC3)c2)cc2c1cnn2C(C)C
In short: as §1

givinostat = compound: CCN(CC)Cc1ccc2cc(COC(=O)Nc3ccc(C(=O)NO)cc3)ccc2c1 [givinostat]
In short: as §1

barasertib = compound: CCN(CCCOc1ccc2c(Nc3cc(CC(=O)Nc4cccc(F)c4)[nH]n3)ncnc2c1)CCOP(=O)(O)O [barasertib]
In short: as §1

Measured: log2 fold change

AMPD3 isoform 4 (UniProt Q01432)
inactive: IRAK-1-4 Inhibitor I 0.051 | ibrutinib 0.026 | [1] 0.001 | ralimetinib -0.079 | [2] -0.065 | [3] -0.074 | [4] -0.015 | pinometostat -0.044 | [5] 0.008 | [6] -0.011 | [7] -0.018 | [8] 0.015 | [9] 0.011 | [10] 0.038 | Nexturastat A -0.082 | vemurafenib -0.018 | [11] -0.021 | [12] 0.016 | givinostat -0.082 | barasertib 0.01

ALG1 (UniProt Q9BT22)
inactive: IRAK-1-4 Inhibitor I -0.028 | ibrutinib 0.034 | [1] -0.004 | ralimetinib -0.072 | [2] -0.045 | [3] 0.152 | [4] -0.028 | pinometostat -0.021 | [5] 0.015 | [6] 0.153 | [7] -0.036 | [8] 0 | [9] -0.032 | [10] 0.002 | Nexturastat A -0.097 | vemurafenib 0.014 | [11] 0.026 | [12] 0.009 | givinostat -0.065 | barasertib -0.013

ALG8 (UniProt Q9BVK2)
inactive: IRAK-1-4 Inhibitor I 0.025 | ibrutinib -0.012 | [1] 0.015 | ralimetinib -0.018 | [2] -0.004 | [3] -0.111 | [4] -0.1 | pinometostat 0.009 | [5] -0.011 | [6] 0.04 | [7] 0.002 | [8] 0.023 | [9] 0.08 | [10] 0.097 | Nexturastat A -0.045 | vemurafenib 0.009 | [11] 0.074 | [12] -0.065 | givinostat -0.036 | barasertib -0.001

AK3 (UniProt Q9UIJ7)
inactive: IRAK-1-4 Inhibitor I 0.027 | ibrutinib -0.003 | [1] -0.009 | ralimetinib -0.07 | [2] -0.009 | [3] 0.012 | [4] -0.019 | pinometostat -0.036 | [5] -0.011 | [6] 0.039 | [7] 0 | [8] 0 | [9] 0.013 | [10] 0.005 | Nexturastat A -0.114 | vemurafenib -0.021 | [11] -0.001 | [12] -0.026 | givinostat 0.001 | barasertib 0.022

ADO (UniProt Q96SZ5)
inactive: IRAK-1-4 Inhibitor I 0.002 | ibrutinib -0.007 | [1] -0.045 | ralimetinib 0.028 | [2] -0.013 | [3] 0.014 | [4] 0.011 | pinometostat 0.003 | [5] 0.011 | [6] 0.054 | [7] -0.022 | [8] 0.058 | [9] 0.033 | [10] -0.02 | Nexturastat A -0.001 | vemurafenib -0.024 | [11] -0.016 | [12] -0.061 | givinostat 0.032 | barasertib 0.029

AKR1B1 (UniProt P15121)
inactive: IRAK-1-4 Inhibitor I 0 | ibrutinib 0.021 | [1] -0.004 | ralimetinib -0.01 | [2] 0.093 | [3] 0.103 | [4] 0.009 | pinometostat 0.104 | [5] 0.006 | [6] -0.006 | [7] 0.026 | [8] -0.057 | [9] 0.014 | [10] -0.067 | Nexturastat A -0.018 | vemurafenib 0.003 | [11] -0.014 | [12] -0.003 | givinostat 0.058 | barasertib 0.008

AGFG1 isoform 4 (UniProt P52594)
inactive: IRAK-1-4 Inhibitor I -0.022 | ibrutinib -0.008 | [1] -0.025 | ralimetinib 0.011 | [2] -0.072 | [3] 0.074 | [4] 0.01 | pinometostat -0.096 | [5] -0.037 | [6] 0.021 | [7] 0.019 | [8] -0.031 | [9] 0 | [10] 0.178 | Nexturastat A -0.158 | vemurafenib 0.025 | [11] 0.042 | [12] 0.043 | givinostat 0.028 | barasertib 0.001

AGO3 (UniProt Q9H9G7)
inactive: IRAK-1-4 Inhibitor I -0.064 | ibrutinib 0.052 | [1] -0.152 | ralimetinib 0.024 | [2] 0.072 | [3] 0.094 | [4] 0.038 | pinometostat 0.014 | [5] -0.168 | [6] 0.197 | [7] 0.011 | [8] 0.01 | [9] -0.014 | [10] -0.008 | Nexturastat A 0.124 | vemurafenib -0.061 | [11] 0.017 | [12] 0.226 | givinostat -0.068 | barasertib -0.033

ALAD isoform 2 (UniProt P13716)
inactive: IRAK-1-4 Inhibitor I 0.009 | ibrutinib 0.027 | [1] -0.032 | ralimetinib -0.003 | [2] -0.022 | [3] 0.089 | [4] -0.001 | pinometostat -0.027 | [5] 0.003 | [6] 0.019 | [7] -0.08 | [8] -0.022 | [9] -0.013 | [10] -0.015 | Nexturastat A -0.058 | vemurafenib 0.084 | [11] -0.04 | [12] -0.065 | givinostat -0.037 | barasertib -0.081

ALG13 (UniProt Q9NP73)
inactive: IRAK-1-4 Inhibitor I 0.012 | ibrutinib -0.002 | [1] -0.019 | ralimetinib -0.042 | [2] -0.072 | [3] -0.114 | [4] -0.052 | pinometostat -0.082 | [5] -0.022 | [6] 0.163 | [7] 0.032 | [8] -0.012 | [9] 0.051 | [10] -0.036 | Nexturastat A -0.17 | vemurafenib -0.003 | [11] 0.033 | [12] 0.012 | givinostat -0.061 | barasertib 0.051

AHCY (UniProt P23526)
inactive: IRAK-1-4 Inhibitor I 0.007 | ibrutinib 0.009 | [1] 0.034 | ralimetinib 0.01 | [2] -0.013 | [3] 0.061 | [4] -0.029 | pinometostat -0.079 | [5] 0.015 | [6] -0.009 | [7] 0.017 | [8] 0.011 | [9] 0.003 | [10] 0.017 | Nexturastat A -0.067 | vemurafenib -0.04 | [11] -0.031 | [12] -0.025 | givinostat -0.099 | barasertib 0.007

ALDOC (UniProt P09972)
inactive: IRAK-1-4 Inhibitor I 0.015 | ibrutinib 0.039 | [1] 0.003 | ralimetinib -0.055 | [2] -0.008 | [3] 0.087 | [4] 0.036 | pinometostat -0.023 | [5] 0.022 | [6] -0.001 | [7] 0.03 | [8] -0.021 | [9] 0.032 | [10] 0.007 | Nexturastat A 0.009 | vemurafenib 0.02 | [11] 0.015 | [12] -0.109 | givinostat -0.004 | barasertib -0.023

ALDH1L2 (UniProt Q3SY69)
inactive: IRAK-1-4 Inhibitor I 0.004 | ibrutinib -0.041 | [1] 0 | ralimetinib 0.058 | [2] -0.158 | [3] -0.098 | [4] 0.049 | pinometostat 0.047 | [5] -0.076 | [6] 0.122 | [7] -0.015 | [8] 0.025 | [9] 0.1 | [10] -0.087 | Nexturastat A -0.059 | vemurafenib 0.061 | [11] -0.032 | [12] 0.028 | givinostat -0.014 | barasertib 0.117

AKAP12 (UniProt Q02952)
inactive: IRAK-1-4 Inhibitor I 0.104 | ibrutinib 0.07 | [1] -0.036 | ralimetinib -0.009 | [2] 0.048 | [3] 0.058 | [4] 0.065 | pinometostat 0.088 | [5] -0.183 | [6] -0.053 | [7] -0.118 | [8] 0.015 | [9] -0.05 | [10] -0.164 | Nexturastat A 0.099 | vemurafenib -0.087 | [11] 0.006 | [12] -0.081 | givinostat 0.018 | barasertib 0.056

ADSL (UniProt P30566)
inactive: IRAK-1-4 Inhibitor I 0.036 | ibrutinib 0.019 | [1] 0.015 | ralimetinib -0.037 | [2] -0.027 | [3] 0.095 | [4] -0.025 | pinometostat -0.046 | [5] 0.012 | [6] -0.022 | [7] -0.002 | [8] 0.012 | [9] -0.006 | [10] 0.038 | Nexturastat A -0.025 | vemurafenib -0.022 | [11] -0.005 | [12] -0.021 | givinostat -0.029 | barasertib -0.011

ALG2 (UniProt Q9H553)
inactive: IRAK-1-4 Inhibitor I 0.038 | ibrutinib -0.031 | [1] -0.044 | ralimetinib -0.033 | [2] -0.017 | [3] -0.002 | [4] 0.009 | pinometostat 0 | [5] -0.032 | [6] 0.036 | [7] 0.001 | [8] -0.02 | [9] 0 | [10] 0.005 | Nexturastat A -0.062 | vemurafenib 0.04 | [11] 0.031 | [12] 0.018 | givinostat 0.009 | barasertib 0.055

Random excerpt: two entries already listed, in no set order.
ALG8 (UniProt Q9BVK2)
inactive: IRAK-1-4 Inhibitor I 0.025 | ibrutinib -0.012 | [1] 0.015 | ralimetinib -0.018 | [2] -0.004 | [3] -0.111 | [4] -0.1 | pinometostat 0.009 | [5] -0.011 | [6] 0.04 | [7] 0.002 | [8] 0.023 | [9] 0.08 | [10] 0.097 | Nexturastat A -0.045 | vemurafenib 0.009 | [11] 0.074 | [12] -0.065 | givinostat -0.036 | barasertib -0.001

ALG13 (UniProt Q9NP73)
inactive: IRAK-1-4 Inhibitor I 0.012 | ibrutinib -0.002 | [1] -0.019 | ralimetinib -0.042 | [2] -0.072 | [3] -0.114 | [4] -0.052 | pinometostat -0.082 | [5] -0.022 | [6] 0.163 | [7] 0.032 | [8] -0.012 | [9] 0.051 | [10] -0.036 | Nexturastat A -0.17 | vemurafenib -0.003 | [11] 0.033 | [12] 0.012 | givinostat -0.061 | barasertib 0.051
